From article PMC7819943, “Rice protein-binding microarrays: a tool to detect cis-acting elements near promoter regions in rice”
This is one part of the list.

Protein sequences, listed by entry. Tags and fused reporters are not part of them.
UniProt Q0JBA9, entry or part of it: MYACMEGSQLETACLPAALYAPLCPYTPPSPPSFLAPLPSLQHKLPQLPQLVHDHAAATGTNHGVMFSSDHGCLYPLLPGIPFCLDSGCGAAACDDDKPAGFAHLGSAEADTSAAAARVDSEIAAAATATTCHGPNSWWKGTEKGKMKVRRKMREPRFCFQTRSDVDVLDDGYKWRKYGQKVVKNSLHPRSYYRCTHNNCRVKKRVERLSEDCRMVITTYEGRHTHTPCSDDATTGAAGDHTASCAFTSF

biological target: OsWRKY34 (Oryza sativa, UniProt Q0JBA9 1-250); experiment: protein-binding microarray (RPBM); PBS, 2% BSA, 51.3 ng/ul salmon testes DNA, 50 uM zinc acetate, 200 nM TF, 25 C, 1 h; high values mean tight binding; settings: protein: recombinant; tags: N-terminal polyhistidine and DsRed monomer fusion (pET32a); label: CyDye5-dUTP incorporated in the synthesized complementary strand; 3' TTTTT single-stranded linker to array surface; dsDNA, one strand shown
How it was run: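 Ni–NTA purification followed expression in E. coli BL21-CodonPlus of transcription factors fused N-terminally to a polyhistidine tag and DsRed. At 200 nM in PBS with 2% BSA, salmon testes DNA and 50 µM zinc acetate, the protein was incubated for 1 h at 25 °C with a custom Agilent array that had been primer-extended with Cy5-dUTP and blocked with 2% BSA. After washing, the array was read on an Axon 4000B scanner. The binding signal is per-feature fluorescence intensity in arbitrary units.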

Row | Sequence | binding signal
1 | CACTACTATCTGCCTCACCGTTAACCCTACCGAATAAATTCGGAGTCACCTAGTGCAG | 8880 fluorescence intensity (a.u.)
2 | TCTTGATTTTTGCATTAGTAGTAGTTGCGTCTTATATTTTCGGAGTCACCTAGTGCAG | 12100 fluorescence intensity (a.u.)
3 | TCACCTTATCGTCACGCTCTCCCTATTTTTTTTCCCCTTTCGGAGTCACCTAGTGCAG | 8490 fluorescence intensity (a.u.)
4 | CCCTTTTTTTTTCATTGTTACAACTTTAACACTATAAGTTCGGAGTCACCTAGTGCAG | 9860 fluorescence intensity (a.u.)
5 | GATGGTTTAGAATTCTCTTTAGGCTGCACCCAAAATTTCTCGGAGTCACCTAGTGCAG | 11100 fluorescence intensity (a.u.)
6 | ATTTCCTTAAAATCTTTCTCTTTTGCCCAATTTGATTTCCCGGAGTCACCTAGTGCAG | 8420 fluorescence intensity (a.u.)
7 | ACTCGCTTGTGTCTGCCTCTCGGCAATGTATGATTTGATCCGGAGTCACCTAGTGCAG | 9260 fluorescence intensity (a.u.)
8 | AGGCCTCCATAAAAACTCCATCTCGATCGTCTCATCTCATCGGAGTCACCTAGTGCAG | 8440 fluorescence intensity (a.u.)
9 | TCGTGTTGGTGGTGGTGGTGGTGTGCGGGCGGGCGGGCGCCGGAGTCACCTAGTGCAG | 33300 fluorescence intensity (a.u.)
10 | TTGCTGGTTAGTGAATTGTAGTTTGCACATTGAAATGATTCGGAGTCACCTAGTGCAG | 8790 fluorescence intensity (a.u.)
11 | TGGTTCATCTGTTGATCACTTCTTTGTTTCCCGCGTTTTGCGGAGTCACCTAGTGCAG | 13300 fluorescence intensity (a.u.)
12 | TTAAAACTGAAATTATCGTATGTGCCTTGTCGCCGTGATTCGGAGTCACCTAGTGCAG | 8090 fluorescence intensity (a.u.)
13 | GAGATGAATCTTTTAAGCCTAATTGCACCATCATTTAATACGGAGTCACCTAGTGCAG | 8360 fluorescence intensity (a.u.)
14 | ACAATACCTGCGCTTTCCATCCTATCATCCTATCCCCGACCGGAGTCACCTAGTGCAG | 11300 fluorescence intensity (a.u.)
15 | TGTTTTGGTTTAGACTTTTCGACTTATAAGTTGTCTTATACGGAGTCACCTAGTGCAG | 8500 fluorescence intensity (a.u.)
16 | TACTATCACATATCCGGATTCATCATTAATTTCTGTAGCTCGGAGTCACCTAGTGCAG | 10400 fluorescence intensity (a.u.)
17 | CGCCACGGGTGCCCGCGTCATCCCATCCCCTCGCGCGTCGCGGAGTCACCTAGTGCAG | 9250 fluorescence intensity (a.u.)
18 | TCTGCTGCCGCTCACTTAACGAATCGCATGCACCTGATCACGGAGTCACCTAGTGCAG | 8340 fluorescence intensity (a.u.)
19 | TGGTCGGGTGTTTTTGTGATTGATGGTTTTGGTAGACGGGCGGAGTCACCTAGTGCAG | 11200 fluorescence intensity (a.u.)
20 | GACCAAGACCCACGACCTCGCCTTCGCGACGCGGCCCATCCGGAGTCACCTAGTGCAG | 8220 fluorescence intensity (a.u.)
21 | CCTCCGGATCCTCGGCCCCGTCTTCTCCGACTCCTCCAGCCGGAGTCACCTAGTGCAG | 8320 fluorescence intensity (a.u.)

Row | Sequence | binding signal
22 | TTCACGTGTGTTTTGTGTAGTTTTCTACCAGTTTGTTGAACGGAGTCACCTAGTGCAG | 8470 fluorescence intensity (a.u.)
23 | CCGCCTCCGCCGTGCGACCTCCGCATTCTCCCGCGCCGCGCGGAGTCACCTAGTGCAG | 8260 fluorescence intensity (a.u.)
24 | CATATGGTGTCTTGTAAATTTCCTTTTCCACGTACTAACACGGAGTCACCTAGTGCAG | 12400 fluorescence intensity (a.u.)
25 | CCCGTCGCCTTTAACTCCATCCATCGCGTCGCCTTCCCTTCGGAGTCACCTAGTGCAG | 8510 fluorescence intensity (a.u.)
26 | TTGTGTGGTTTTGTAATTTGATTCTATTCCTAAGTTGAGACGGAGTCACCTAGTGCAG | 8100 fluorescence intensity (a.u.)
27 | CAGCGAGCGCACACCCAACAAGATTTGACTAATTGCTCGCCGGAGTCACCTAGTGCAG | 8440 fluorescence intensity (a.u.)
28 | TACATTTTGAAGGTGGGAGGGTAGGATAGTAATTTCGCATCGGAGTCACCTAGTGCAG | 9380 fluorescence intensity (a.u.)
29 | TTTAGCTTAACTTATTACGATTATGGCTGTGTTTAGTTTCCGGAGTCACCTAGTGCAG | 9160 fluorescence intensity (a.u.)
30 | CTCCAATGTTTGCAGTTTGCACTACTGGTACCTATATCTTCGGAGTCACCTAGTGCAG | 10600 fluorescence intensity (a.u.)
31 | TGTTTGTTGACTTTATACTTGAGCAAGTGTAAATCTTTTCCGGAGTCACCTAGTGCAG | 13300 fluorescence intensity (a.u.)
32 | ACTTCCACTTTTGCCGCTGGTAGTATTTCTTTTTGAGACACGGAGTCACCTAGTGCAG | 11100 fluorescence intensity (a.u.)
33 | CTGCTGTGTCGTCGTCGTCGTCGGGAGTGGGGAGCGAGCGCGGAGTCACCTAGTGCAG | 9110 fluorescence intensity (a.u.)
34 | ACTGTTCAATTATTACCCTTACTTTGCTGTGAGATGGGTTCGGAGTCACCTAGTGCAG | 9080 fluorescence intensity (a.u.)
35 | TGGTGGTGGTGGTGGCTGTAGTGTGGAGGTGGTGGGGAGTCGGAGTCACCTAGTGCAG | 16700 fluorescence intensity (a.u.)
36 | CGGTGGAGAGTGGCGGCTGGGTGGCTAGGTGGGTGAGAAACGGAGTCACCTAGTGCAG | 9400 fluorescence intensity (a.u.)
37 | GACACCGGTGCTATGCACCACGAGAGCACGAGAAGAGACGCGGAGTCACCTAGTGCAG | 14500 fluorescence intensity (a.u.)
38 | GCCGCCCGTTTCAGATGTCATATCCCGTGCTAGTGTATACCGGAGTCACCTAGTGCAG | 9470 fluorescence intensity (a.u.)
39 | ACTTCAGGTCATCCCATCTTCCTTTGACTGAATTTGATCACGGAGTCACCTAGTGCAG | 10000 fluorescence intensity (a.u.)
40 | CCTATGTATTTTCTTCCGCACATCTTGCACCAGCCGGTCACGGAGTCACCTAGTGCAG | 8880 fluorescence intensity (a.u.)
41 | CTTGTGGCTTGTGCAATTCTGTTTCATCGAGTTTGTTAACCGGAGTCACCTAGTGCAG | 8830 fluorescence intensity (a.u.)
42 | TGGACACCTATACCTCTGGTATTCCCTTGCGTTTTGATCGCGGAGTCACCTAGTGCAG | 8110 fluorescence intensity (a.u.)

Quoted from above: nos. 23 to 26
Row | Sequence | binding signal
23 | CCGCCTCCGCCGTGCGACCTCCGCATTCTCCCGCGCCGCGCGGAGTCACCTAGTGCAG | 8260 fluorescence intensity (a.u.)
24 | CATATGGTGTCTTGTAAATTTCCTTTTCCACGTACTAACACGGAGTCACCTAGTGCAG | 12400 fluorescence intensity (a.u.)
25 | CCCGTCGCCTTTAACTCCATCCATCGCGTCGCCTTCCCTTCGGAGTCACCTAGTGCAG | 8510 fluorescence intensity (a.u.)
26 | TTGTGTGGTTTTGTAATTTGATTCTATTCCTAAGTTGAGACGGAGTCACCTAGTGCAG | 8100 fluorescence intensity (a.u.)
